Measurements taken from PubChem BioAssay.
The other results are listed elsewhere or left out. These are further read-outs of the screen, such as a control signal, another cell line or another target. No call is given for them. Bridge positions count the residues as written; N and C are the ends. Square brackets hold non-standard residues; d marks the D form. Peptide text beside a SMILES is read from it. * marks the point of attachment. Octanoyl(6-Me) = CCC(C)CCCCC(=O)*; Dab = NCC[CH](N)C(=O)O

Test: PubChem AID 1586
Conditions: yeast two-hybrid polyglutamine protein interaction, reporter readout; measured here: averaged growth delta OD
In the case of `O=C1C(CCS(=O)c2ccccc2)C(=O)N(c2ccccc2)N1c1ccccc1` (centres undefined), the signal change (36 h minus 0 h) was 0.163. For `COc1cc(CNC(=O)CCCC/C=C/C(C)C)ccc1O`, the signal change (36 h minus 0 h) was 0.096. `CC(C)NCC(O)COc1cccc2ccccc12` (centres undefined) showed a signal change (36 h minus 0 h) of 0.0393. `CCC(=O)OCC(=O)C1(OC(=O)CC)C(C)CC2C3CCC4=CC(=O)C=CC4(C)C3(Cl)C(O)CC21C` (centres undefined) showed a signal change (36 h minus 0 h) of 0.118. `CC1=C(CC(=O)O)c2cc(F)ccc2/C1=C\c1ccc(S(C)=O)cc1` (centres undefined) gave a signal change (36 h minus 0 h) of -0.106. Molecule `CN(C)CCCO[C@H]1[C@@H](C(O)CO)OC2OC(C)(C)O[C@@H]21` (some centres undefined) has a signal change (36 h minus 0 h) of 0.107. With `CC(CNC(=O)c1ccccc1)C(=O)OCC(=O)[C@@]12OC(C)(C)O[C@@H]1CC1C3CCC4=CC(=O)C=C[C@]4(C)[C@@]3(F)[C@@H](O)C[C@@]12C` (some centres undefined) the signal change (36 h minus 0 h) was 0.181. `CON` showed a signal change (36 h minus 0 h) of 0.0657. For `CC(=O)O[C@]1(C(C)=O)CCC2C3C[C@H](C)C4=CC(=O)CC[C@]4(C)C3CC[C@@]21C` (some centres undefined), the signal change (36 h minus 0 h) was 0.13. `CC(COc1ccccc1)NC(C)[C@H](O)c1ccc(O)cc1` (some centres undefined) gave a signal change (36 h minus 0 h) of 0.144. Work on `c1ccc2[nH]c(-c3cscn3)nc2c1` yielded a signal change (36 h minus 0 h) of 0.0491. Work on `Nc1ccc(S(=O)(=O)c2ccc(N)cc2)cc1` yielded a signal change (36 h minus 0 h) of 0.144. Molecule `COC(=O)[C@H]1[C@H]2C[C@@H]3c4[nH]c5cc(OC)ccc5c4CCN3C[C@H]2C[C@@H](OC(=O)c2cc(OC)c(OC)c(OC)c2)[C@@H]1OC` has a signal change (36 h minus 0 h) of 0.313. Work on `NC(N)=Nc1nc(CSCC/C(N)=N\S(N)(=O)=O)cs1` yielded a signal change (36 h minus 0 h) of 0.138. With `COc1ccc2c(c1)c(CC(=O)OCC(=O)O)c(C)n2C(=O)c1ccc(Cl)cc1` the signal change (36 h minus 0 h) was 0.166. Molecule `CCC(C)CCCCC(=O)NC(CCN)C(=O)NC(C(=O)NC(CCN)C(=O)NC1CCNC(=O)C(C(C)O)NC(=O)C(CCN)NC(=O)C(CCN)NC(=O)C(CC(C)C)NC(=O)C(Cc2ccccc2)NC(=O)C(CCN)NC1=O)C(C)O` (centres undefined) ({Octanoyl(6-Me)}-[Dab]T[Dab][Dab][Dab]FL[Dab][Dab]T; lactam 4-C; configuration not given here) has a signal change (36 h minus 0 h) of -0.137. For `CC(=O)OCC(COC(C)=O)OC(C)=O`, the signal change (36 h minus 0 h) was 0.0523. For `C[C@@H]1O[C@@H](OC[C@H]2O[C@@H](Oc3c(-c4ccc(O)c(O)c4)oc4cc(O)cc(O)c4c3=O)[C@H](O)[C@@H](O)[C@@H]2O)[C@H](O)[C@H](O)[C@H]1O`, the signal change (36 h minus 0 h) was 0.318. `CN/C(=C\[N+](=O)[O-])NCCSCc1ccc(CN(C)C)o1` showed a signal change (36 h minus 0 h) of 0.0648. Work on `CCC(=O)c1ccc2c(c1)N(CC(C)N(C)C)c1ccccc1S2` (centres undefined) yielded a signal change (36 h minus 0 h) of 0.177. Molecule `CCCN(CCC)S(=O)(=O)c1ccc(C(=O)O)cc1` has a signal change (36 h minus 0 h) of 0.147. `CC(=O)CC(c1ccccc1)c1c(O)c2ccccc2oc1=O` (centres undefined) gave a signal change (36 h minus 0 h) of 0.2. With `CC(C(=O)O)c1ccc(C(=O)c2cccs2)cc1` (centres undefined) the signal change (36 h minus 0 h) was 0.0661. With `NC(=O)c1cnccn1` the signal change (36 h minus 0 h) was 0.137. Molecule `CN(Cc1cnc2nc(N)nc(N)c2n1)c1ccc(C(=O)N[C@@H](CCC(=O)O)C(=O)O)cc1` has a signal change (36 h minus 0 h) of 0.04. In the case of `Clc1cc(Cl)c(OCC#CI)cc1Cl`, the signal change (36 h minus 0 h) was 0.451. For `CNCCCN1c2ccccc2CCc2ccccc21`, the signal change (36 h minus 0 h) was 0.0611. `CN=C(NC#N)NCCSCc1nc[nH]c1C` showed a signal change (36 h minus 0 h) of 0.144. `CC(=C(CCOP(=O)(O)O)SC(=O)c1ccccc1)N(C=O)Cc1cnc(C)nc1N` gave a signal change (36 h minus 0 h) of 0.0813. For `OC[C@H]1O[C@@H](O[C@@H]2[C@@H](CO)O[C@](O)(CO)[C@H]2O)[C@H](O)[C@@H](O)[C@H]1O`, the signal change (36 h minus 0 h) was 0.0355. In the case of `Cn1cnc([N+](=O)[O-])c1Sc1ncnc2nc[nH]c12`, the signal change (36 h minus 0 h) was 0.123. `CCn1cc(C(=O)O)c(=O)c2cnc(N3CCNCC3)nc21` gave a signal change (36 h minus 0 h) of 0.0293. Molecule `CN1CCC(OC(c2ccccc2)c2ccccc2)CC1` has a signal change (36 h minus 0 h) of 0.108. `NC(COCc1ccccc1)C(=O)O` (centres undefined) showed a signal change (36 h minus 0 h) of 0.113. Molecule `N=C(N)c1ccc(OCCCCCOc2ccc(C(=N)N)cc2)cc1` has a signal change (36 h minus 0 h) of 0.0448. For `CC(C)COCC(CN(Cc1ccccc1)c1ccccc1)N1CCCC1` (centres undefined), the signal change (36 h minus 0 h) was 0.0803. `Nc1ncnc2c1ncn2[C@@H]1O[C@H](CO)[C@@H](O)[C@@H]1O` gave a signal change (36 h minus 0 h) of 0.0898. `CN(C)CCC=C1c2ccccc2CCc2ccccc21` gave a signal change (36 h minus 0 h) of 0.274. Molecule `O=C(O)C1=CCNCC1` has a signal change (36 h minus 0 h) of 0.045.
